# Experimental data as given in PubChem BioAssay AID504834 (National Center for Advancing Translational Sciences (NCATS), 2011).
# About 22,000 (6.9%) of roughly 320,000 compounds were called active. The shares of active, inactive and inconclusive entries below differ from those in the screen. The call rests on the fitted dose curve; in most records, active means well fitted inhibition curve with a large enough effect; inconclusive means small, poorly fitted or top-dose-only effect, or another doubt; inactive means no such curve, though single readings can be large or run the other way. A potency beside an inconclusive call is a rough fit, not a confirmed value.
# Assay: Primary qHTS for delayed death inhibitors of the malarial parasite plastid, 96 hour incubation
# Settings: P. falciparum luciferase reporter growth; series mostly up to 28.7 µM; activity change, negative = inhibition: at the top concentration
# How it was run: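 Parasite growth measured via integrated firefly luciferase reporter in P. falciparum. Infected erythrocytes at 2% hematocrit, 0.05% parasitemia final were treated 96 hours at 37 C under 5% CO2, and luminescence was read.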
# On the % scale 0 is the no-effect control and ±100 the full control effect; potency means the concentration at half of the fitted maximal effect.
Compound,"activity change, negative = inhibition",Potency
COc1ccccc1N1C(=NC(=O)CCc2ccccc2)SC2CS(=O)(=O)CC21 (stereo unspecified),inactive: -0.808%,
COc1ccc(OC)c(NC(=O)CCc2nnc3ccc(NCc4ccco4)nn23)c1,,"inconclusive: 18.5 µM [inhibitor, single point]"
CCc1ccc(CN(C)C(=O)C2CCC(=O)N(CCCN3CCCC3=O)C2)cc1 (stereo unspecified),,"inconclusive: 10.4 µM [inhibitor, single point]"
Nc1nnnn1/N=C/c1cc(Cl)cc(Cl)c1OCc1ccc(Cl)cc1Cl,inactive: 2.41%,
O=C1CN(C(=O)CSc2nc(-c3ccccc3)cs2)c2ccccc2N1,,"inconclusive: 9.28 µM [inhibitor, partial curve, poor fit]"
CCN1CCCC1Cn1cnc2c([nH]c3cccc(Cl)c32)c1=O (stereo unspecified),,"inconclusive: 5.22 µM [inhibitor, partial curve, poor fit]"
COc1ccc(/C=C/C(=O)C2CC2)cc1COc1cccc(C)c1C,,"inconclusive: 18.5 µM [inhibitor, single point]"
CC(C)c1ccc(Oc2cccc(C(=O)/C(C#N)=C/N(C)C)c2)cc1,inactive: 20.2%,
O=S(=O)(Nn1cnnc1)c1ccccc1Cl,,"inconclusive: 10.4 µM [inhibitor, single point]"
Cc1ccc(C(=O)NCCNC(=O)COc2ccc(Cl)cc2)cn1,,"inconclusive: 13.1 µM [inhibitor, single point]"
Cc1c(C(=O)Nc2ccc(Cl)cc2)c2ccccn2c1CCc1ccncc1,,active: 9.28 µM
CCN1CCN(CCNC(=O)Nc2ccc([N+](=O)[O-])cc2)CC1,inactive: -1.63%,
CCS(=O)(=O)c1ccc(OC)c(N=Nc2ccc(O)c3ncccc23)c1,,"inconclusive: 18.5 µM [inhibitor, single point]"
O=C(CCc1nc2ccccc2[nH]c1=O)N/N=C/c1ccccc1,,"inconclusive: 3.7 µM [inhibitor, partial curve, poor fit]"
CC(C)(C)OC(=O)Nc1ccc([C@H](NC(=O)OC(C)(C)C)C(=O)OC(C)(C)C)cc1,,"inconclusive: 16.5 µM [inhibitor, partial curve, poor fit]"
Cc1ccccc1CNC(=O)Nc1cccs1,inactive: -17%,
Cc1ccc2c(c1)C(c1ccc(N3CCOCC3)cc1)=NNC(c1cccs1)=N2,,"inconclusive: 1.17 µM [inhibitor, partial curve, poor fit]"
Cc1ccc(CN2CCC(C(=O)NCCC(C)C)CC2)o1,,"inconclusive: 18.5 µM [inhibitor, single point]"
Cc1ccc(O)c(NC(=O)C2CC(c3cccc(Br)c3)=NO2)c1 (stereo unspecified),,"inconclusive: 16.5 µM [inhibitor, partial curve, poor fit]"
COc1ccccc1-c1nc2cc3ccccc3cc2nc1-c1ccccc1OC,,active: 11.7 µM
CCCCCn1c(=N)c(S(=O)(=O)c2ccc(Br)cc2)cc2c(=O)n3cccc(C)c3nc21,,"inconclusive: 2.33 µM [inhibitor, full curve]"
COc1ccc(CN(C)Cc2cc(=O)n3ccsc3n2)c(OC)c1OC,,"inconclusive: 11.7 µM [inhibitor, partial curve, poor fit]"
CC(=O)c1ccc(-c2ccc(C(=O)N3CCCc4ccccc43)o2)cc1,inactive: -11.4%,

Compound,"activity change, negative = inhibition",Potency
CCn1nc(C(=O)NCC2COc3ccccc3O2)c2ccccc2c1=O (stereo unspecified),,"inconclusive: 18.5 µM [inhibitor, single point]"
Cc1cc(C)cc(OCC(=O)Nc2cc(NC(=O)COc3cc(C)cc(C)c3)cc(C(=O)O)c2)c1,,"inconclusive: 11.7 µM [inhibitor, single point]"
CCC(=O)N1CCN(c2ccccc2NC(=O)c2ccc([N+](=O)[O-])o2)CC1,inactive: 61.6%,
Cc1c(NC(=O)c2cc3nc(-c4ccccc4)cc(C)n3n2)c(=O)n(-c2ccccc2)n1C,,"inconclusive: 11.7 µM [inhibitor, single point]"
COc1ccccc1/C=C/C(=O)OCCN1CCOCC1,inactive: 32.3%,
CC1(C)CC(=O)C(C(N)=NC(=O)c2ccc([N+](=O)[O-])cc2)=C(O)C1,inactive: 41.7%,
Cc1ccc2[nH]c(-c3ccccc3)cc(=O)c2c1,,"inconclusive: 0.928 µM [inhibitor, partial curve, poor fit]"
CCn1c(=NC(=O)C2COc3ccccc3O2)sc2c(OC)ccc(OC)c21 (stereo unspecified),inactive: -13.1%,
COC(=O)C1=C(C)NC2=C(C(=O)CCC2)C1c1cn(Cc2ccc(Br)cc2)nc1-c1ccccc1 (stereo unspecified),,active: 13.1 µM
CC(/C=C/c1ccccc1)=N/NC(=O)c1nc2nc(C)cc(C)n2n1,inactive: 57.9%,
COc1ccc(/C=C/C(=O)N(CC(C)C)CC(C)C)cc1Br,,"inconclusive: 10.4 µM [inhibitor, single point]"
CCOC(=O)N1CCN(S(=O)(=O)c2ccc(C(=O)N(CCN(C)C)c3nc4ccc(CC)cc4s3)cc2)CC1,,"inconclusive: 18.5 µM [inhibitor, single point]"
O=C(Nc1ccccc1N1CCCCC1)c1ccc(-c2ccc(Cl)cc2)o1,,"inconclusive: 13.1 µM [inhibitor, single point]"
Cc1ccc(CNC(=O)CCNC(=O)c2ccc(Br)o2)cc1,inactive: 24.3%,
CN(CCCOc1ccccc1Br)Cc1ccccc1,,"inconclusive: 18.5 µM [inhibitor, single point]"
O=C(CCc1nnc2ccc(NCc3ccco3)nn12)N1CCN(c2ccc(F)cc2)CC1,inactive: -17.9%,
COc1cc(C)ccc1OCc1cc(C(=O)N2CCC(c3ccc(F)cc3)C2)no1 (stereo unspecified),inactive: 122%,
COc1ccc(CNc2nc3ccccc3n2CCN2CCCCC2)c(OC)c1,inactive: 13.4%,
Cc1ccn2c(NC3CCCC3)c(-c3ccsc3)nc2c1,inactive: 9.94%,
CC1CCCCN1C(=O)CSc1nnc(-c2ccco2)n1CC1CCCO1 (stereo unspecified),,"inconclusive: 13.1 µM [inhibitor, single point]"
CCCNC(=S)Nc1ccccc1,inactive: 16.7%,
COc1cc(NC(=O)CSCC(=O)Nc2cccc(C(F)(F)F)c2)c(Cl)cc1Cl,,active: 11.7 µM
c1ccn(-c2ncnc3sc4c(c23)CCCC4)c1,,"inconclusive: 13.1 µM [inhibitor, partial curve]"

# Part of the list above in a different format.
Compound	activity change, negative = inhibition	Potency
COc1ccccc1/C=C/C(=O)OCCN1CCOCC1	inactive: 32.3%	
COc1cc(C)ccc1OCc1cc(C(=O)N2CCC(c3ccc(F)cc3)C2)no1 (stereo unspecified)	inactive: 122%	
